At least one compound was matched to its structure with a doubt left.
Tests used:
Type in all cases: in vivo, human
TIEG expression = assay: Real time PCR analysis of muscle samples, TIEG
Experimental: (§1) The gene expression changes observed in the human muscle samples derived from lean and diabetic individuals or from diabetic individuals post-Troglitazone treatment, were further confirmed by the use of real-time quantitative PCR. A combination of specific PCR primers and a Taqman probe were designed to detect and quantify expression levels for each gene. Relative gene expression levels were determined in this manner in each patient and the mean expression level in either the lean or diabetic patient population was then calculated.

[1] = test system: connective tissue growth factor (CTGF) mRNA; assay: Gene expression profiling of muscle samples on custom Affymetrix chips, probe set mbxhummus 24330; details: tro-treated patients compared to untreated patients
Text: (§2) The molecular mechanism by which thiazolidinediones (TZDs) cause an increase in peripheral insulin sensitivity was studied. Genes in muscle or fat whose expression is altered by TZDs may lie on a pathway leading from TZD treatment to increased insulin sensitivity. Modulators of such genes can elicit the same effect as TZD treatment. Moreover, such modulators can lack some of the side effects of TZD. The majority of glucose disposal occurs in muscle. For this reason, gene expression profiling in human muscle from diabetics treated with troglitazone was used to identify genes important for TZD action and therefore treatment of diabetes and insulin resistance. […] The gene expression profile for each individual was determined by hybridization of cRNA to custom synthesized Affymetrix chips. Gene expression profile differences were calculated as follows. […] The raw data was analyzed by a statistical test to remove ‘outliers’. The mean ‘average difference score’ was then calculated from the average difference scores for all individuals in a particular treatment group. Genes were determined to be changed in condition 1 (such as basal diabetics before trogliazone (tro) treatment) versus condition 2 (such as basal diabetics after troglitazone treatment) by calculating the Students t test statistic between the two conditions and selecting those with t less than or equal to 0.05. […]

TIEG mRNA = assay: Gene expression profiling of muscle samples on custom Affymetrix chips, probe set mbxhummus23808; details: tro-treated patients compared to untreated patients
Text: as §2

CTGF expression = assay: Real time PCR analysis of muscle samples, CTGF
Experimental: as §1

For `Cc1c(C)c2c(c(C)c1O)CCC(C)(COc1ccc(CC3SC(=O)NC3=O)cc1)O2` (stereo not shown) [Troglitazone, troglitazone], the “Expression of TIEG in muscle from diabetic individuals (in words)” value (TIEG expression) was “reduces the expression of TEG”, the “Expression of transcripts encoding Connective Tissue Growth Factor (in words)” value [1] was “decreased” and the “Expression of transcripts encoding TIEG (in words)” value (TIEG mRNA) was “reduced”. The “Expression of CTGF in muscle from diabetic individuals (in words)” value (CTGF expression) was “reduces the expression of CTGF”.
